In the assay the target is CD82 (mouse) (mouse, UniProt P40237). Briefly: IP with anti CD82 antibodies, mouse muscle tissue, mass spectrometry.

One molecule from patent US20220119489A1, “COMPOSITIONS AND METHODS FOR […] […] DYSTROPHY AND RELATED DISORDERS” (CHILDREN'S MEDICAL CENTER CORPORATION, published 2022) can be followed below.

B1: VIME_MOUSE (other)
chain: STRSVSSSSYRRMFGGSGTSSRPSSNRSYVTTSTRTYSLGSALRPSTSRSLYSSSPGGAYVTRSSAVRLRSSVPGVRLLQDSVDFSLADAINTEFKNTRTNEKVELQELNDRFANYIDKVRFLEQQNKILLAELEQLKGQGKSRLGDLYEEEMRELRRQVDQLTNDKARVEVERDNLAEDIMRLREKLQEEMLQREEAESTLQSFRQDVDNASLARLDLERKVESLQEEIAFLKKLHDEEIQELQAQIQEQHVQIDVDVSKPDLTAALRDVRQQYESVAAKNLQEAEEWYKSKFADLSEAANRNNDALRQAKQESNEYRRQVQSLTCEVDALKGTNESLERQMREMEENFALEAANYQDTIGRLQDEIQNMKEEMARHLREYQDLLNVKMALDIEIATYRKLLEGEESRISLPLPTFSSLNLRETNLESLPLVDTHSKRTLLIKTVETRDGQVINETSQHHDDLE
B1 yielded a Total of 2 and a Unique of 2.
